Assay results from patent publication US9206174B2, “5-anilinoimidazopyridines and methods of use” (Genentech, Inc., priority 2008, dated 2015).
Some of these results come from one statement about several compounds together.

Chains of the proteins cited; added tags and fusions are not shown.
UniProt Q02750, whole entry S218D/S222D: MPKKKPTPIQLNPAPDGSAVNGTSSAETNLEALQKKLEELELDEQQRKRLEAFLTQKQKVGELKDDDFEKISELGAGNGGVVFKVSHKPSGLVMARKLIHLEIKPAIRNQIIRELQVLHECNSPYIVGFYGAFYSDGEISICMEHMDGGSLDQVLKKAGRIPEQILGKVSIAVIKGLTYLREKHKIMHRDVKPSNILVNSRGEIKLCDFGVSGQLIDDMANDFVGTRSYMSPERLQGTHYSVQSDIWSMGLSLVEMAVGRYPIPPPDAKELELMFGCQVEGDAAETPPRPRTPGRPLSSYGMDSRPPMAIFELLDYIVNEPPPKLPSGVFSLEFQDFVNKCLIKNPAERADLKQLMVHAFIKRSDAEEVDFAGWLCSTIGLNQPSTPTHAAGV

Molecular target: Constitutively activated human mutant MEK1 (Homo sapiens, UniProt Q02750)
Test: MEK Assay (MEK Activity Assay), HTRF
Format: biochemical
Conditions: 15 nM MEK1, 50 μM ATP, GST-ERK1 substrate, 30 minutes; read-out: IC50 in the MEK activity assay of Example 1

| Compound | IC50 |
| --- | --- |
| CNC(=O)c1ncc2cncn2c1Nc1ccc(I)cc1F [Example 21, 5-(2-Fluoro-4-iodophenylamino)-N-methylimidazo[1,5-a]pyrazine-6-carboxamide] | < 10 µM |
| O=C(NOCC1CC1)c1ncc2cncn2c1Nc1ccc(Br)cc1F [Example 25, 5-(4-Bromo-2-fluorophenylamino)-N-(cyclopropyl-methoxy)imidazo[1,5-a]pyrazine-6-carboxamide] | < 10 µM |
